Measured values: patent US20220017960A1
No constants are given. Whether binding was seen depends on the method and setting. Binding seen in cells or lysates may run through a third protein. Some entries that bind do so weakly or less than the wild type. Where a sequence is shown, tags or fusion partners need not be part of it.

Chains of the proteins cited; added tags and fusions are not shown.
UniProt Q14258: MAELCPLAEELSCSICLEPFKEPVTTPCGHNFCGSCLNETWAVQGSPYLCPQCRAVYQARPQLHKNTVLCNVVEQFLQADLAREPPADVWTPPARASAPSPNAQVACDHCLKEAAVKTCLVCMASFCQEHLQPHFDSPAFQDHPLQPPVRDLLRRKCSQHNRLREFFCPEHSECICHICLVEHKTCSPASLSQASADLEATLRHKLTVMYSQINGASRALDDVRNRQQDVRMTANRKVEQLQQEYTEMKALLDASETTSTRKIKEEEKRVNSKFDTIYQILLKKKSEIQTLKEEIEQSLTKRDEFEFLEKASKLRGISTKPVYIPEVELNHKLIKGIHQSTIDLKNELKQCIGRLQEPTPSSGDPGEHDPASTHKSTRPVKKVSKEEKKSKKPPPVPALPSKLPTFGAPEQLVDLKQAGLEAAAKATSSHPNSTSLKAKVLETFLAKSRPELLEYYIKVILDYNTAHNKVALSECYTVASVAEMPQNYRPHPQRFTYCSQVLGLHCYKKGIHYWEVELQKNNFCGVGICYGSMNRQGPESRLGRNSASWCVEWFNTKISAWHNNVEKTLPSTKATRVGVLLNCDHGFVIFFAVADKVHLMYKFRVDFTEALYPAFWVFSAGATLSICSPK

Molecular target: FLAG-tagged TRIM25 (UniProt Q14258)
Experiment: co-immunoprecipitation and immunoblotting, epitope-tagged proteins co-transfected in HEK293T cells

Binder | binding
Xpress (Xpr)-tagged human USP15 wild type (WT) (enzyme, not shown: small tags and cut ends) AEGGAADLDTQRSDIATLLKTSLRKGDTWYLVDSRWFKQWKKYVGFDSWDKYQMGDQNVYPGPIDNSGLLKDGDAQSLKEHLIDELDYILLPTEGWNKLVSWYTLMEGQEPIARKVVEQGMFVKHCKVEVYLTELKLCENGNMNNVVTRRFSKADTIDTIEKEIRKIFSIPDEKETRLWNKYMSNTFEPLNKPDSTIQDAGLYQGQVLVIEQKNEDGTWPRGPSTPNVKNSNYCLPSYTAYKNYDYSEPGRNNEQPGLCGLSNLGNTCFMNSAIQCLSNTPPLTEYFLNDKYQEELNFDNPLGMRGEIAKSYAELIKQMWSGKFSYVTPRAFKTQVGRFAPQFSGYQQQDCQELLAFLLDGLHEDLNRIRKKPYIQLKDADGRPDKVVAEEAWENHLKRNDSIIVDIFHGLFKSTLVCPECAKISVTFDPFCYLTLPLPMKKERTLEVYLVRMDPLTKPMQYKVVVPKIGNILDLCTALSALSGIPADKMIVTDIYNHRFHRIFAMDENLSSIMERDDIYVFEININRTEDTEHVIIPVCLREKFRHSSYTHHTGSSLFGQPFLMAVPRNNTEDKLYNLLLLRMCRYVKISTETEETEGSLHCCKDQNINGNGPNGIHEEGSPSEMETDEPDDESSQDQELPSENENSQSEDSVGGDNDSENGLCTEDTCKGQLTGHKKRLFTFQFNNLGNTDINYIKDDTRHIRFDDRQLRLDERSFLALDWDPDLKKRYFDENAAEDFEKHESVEYKPPKKPFVKLKDCIELFTTKEKLGAEDPWYCPNCKEHQQATKKLDLWSLPPVLVVHLKRFSYSRYMRDKLDTLVDFPINDLDMSEFLINPNAGPCRYNLIAVSNHYGGMGGGHYTAFAKNKDDGKWYYFDDSSVSTASEDQIVSKAAYVLFYQRQDTFSGTGFFPLDRETKGASAATGIPLESDEDSNDNDNDIENENCMHTN | binds
Xpress (Xpr)-tagged human USP15 mutant (L720R) (enzyme, not shown: small tags and cut ends) AEGGAADLDTQRSDIATLLKTSLRKGDTWYLVDSRWFKQWKKYVGFDSWDKYQMGDQNVYPGPIDNSGLLKDGDAQSLKEHLIDELDYILLPTEGWNKLVSWYTLMEGQEPIARKVVEQGMFVKHCKVEVYLTELKLCENGNMNNVVTRRFSKADTIDTIEKEIRKIFSIPDEKETRLWNKYMSNTFEPLNKPDSTIQDAGLYQGQVLVIEQKNEDGTWPRGPSTPNVKNSNYCLPSYTAYKNYDYSEPGRNNEQPGLCGLSNLGNTCFMNSAIQCLSNTPPLTEYFLNDKYQEELNFDNPLGMRGEIAKSYAELIKQMWSGKFSYVTPRAFKTQVGRFAPQFSGYQQQDCQELLAFLLDGLHEDLNRIRKKPYIQLKDADGRPDKVVAEEAWENHLKRNDSIIVDIFHGLFKSTLVCPECAKISVTFDPFCYLTLPLPMKKERTLEVYLVRMDPLTKPMQYKVVVPKIGNILDLCTALSALSGIPADKMIVTDIYNHRFHRIFAMDENLSSIMERDDIYVFEININRTEDTEHVIIPVCLREKFRHSSYTHHTGSSLFGQPFLMAVPRNNTEDKLYNLLLLRMCRYVKISTETEETEGSLHCCKDQNINGNGPNGIHEEGSPSEMETDEPDDESSQDQELPSENENSQSEDSVGGDNDSENGLCTEDTCKGQLTGHKKRLFTFQFNNLGNTDINYIKDDTRHIRFDDRQLRLDERSFRALDWDPDLKKRYFDENAAEDFEKHESVEYKPPKKPFVKLKDCIELFTTKEKLGAEDPWYCPNCKEHQQATKKLDLWSLPPVLVVHLKRFSYSRYMRDKLDTLVDFPINDLDMSEFLINPNAGPCRYNLIAVSNHYGGMGGGHYTAFAKNKDDGKWYYFDDSSVSTASEDQIVSKAAYVLFYQRQDTFSGTGFFPLDRETKGASAATGIPLESDEDSNDNDNDIENENCMHTN | binds
